These are yes or no findings as the source states them, for the method shown. Binding seen in cells or lysates may run through a third protein. Some binding calls cover weakened binding; strength is not graded here.

The values that follow come from publication PMC12044875.

One experiment has as its target T1, Surfactant protein D (UniProt P35248).
T1 sequence: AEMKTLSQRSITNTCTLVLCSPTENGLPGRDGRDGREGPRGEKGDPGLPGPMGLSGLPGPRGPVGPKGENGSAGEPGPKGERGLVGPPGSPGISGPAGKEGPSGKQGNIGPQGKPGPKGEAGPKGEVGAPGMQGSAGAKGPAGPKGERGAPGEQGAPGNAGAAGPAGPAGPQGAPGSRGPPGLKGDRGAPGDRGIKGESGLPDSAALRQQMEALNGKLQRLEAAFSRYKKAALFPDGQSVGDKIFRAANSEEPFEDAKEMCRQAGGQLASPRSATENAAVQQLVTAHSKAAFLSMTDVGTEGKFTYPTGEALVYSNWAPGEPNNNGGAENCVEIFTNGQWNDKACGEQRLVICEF
Nature of the experiment: co-IP; lysate of rat chondrocytes transfected with pcDNA3.1-SP-D and incubated with 3-TYP for 24 h; anti-SP-D and anti-SOD2 antibodies at 4 °C overnight, protein A Sepharose 1 h at 4 °C, western blotting; SP-D and SOD2 each used as bait. On the technique in general: Immunoblotting shows a protein as a band on a membrane.

Experiment [1] deals with T2, Superoxide dismutase 2 (rat (endogenous in primary rat chondrocytes)) (UniProt P07895).
T2 sequence: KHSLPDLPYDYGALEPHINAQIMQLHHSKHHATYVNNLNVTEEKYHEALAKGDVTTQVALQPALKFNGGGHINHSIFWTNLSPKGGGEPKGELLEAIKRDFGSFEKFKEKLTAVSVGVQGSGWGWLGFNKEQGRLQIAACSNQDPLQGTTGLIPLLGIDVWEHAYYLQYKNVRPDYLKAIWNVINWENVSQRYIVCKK
The experiment is described as above.

B1: Superoxide dismutase 2 (enzyme, UniProt P07895 25-222)
chain: KHSLPDLPYDYGALEPHINAQIMQLHHSKHHATYVNNLNVTEEKYHEALAKGDVTTQVALQPALKFNGGGHINHSIFWTNLSPKGGGEPKGELLEAIKRDFGSFEKFKEKLTAVSVGVQGSGWGWLGFNKEQGRLQIAACSNQDPLQGTTGLIPLLGIDVWEHAYYLQYKNVRPDYLKAIWNVINWENVSQRYIVCKK
Regarding B1, in the experiment with Surfactant protein D, the binding result was “binds”.

B2: Surfactant protein D (protein, UniProt P35248 20-374)
chain: AEMKTLSQRSITNTCTLVLCSPTENGLPGRDGRDGREGPRGEKGDPGLPGPMGLSGLPGPRGPVGPKGENGSAGEPGPKGERGLVGPPGSPGISGPAGKEGPSGKQGNIGPQGKPGPKGEAGPKGEVGAPGMQGSAGAKGPAGPKGERGAPGEQGAPGNAGAAGPAGPAGPQGAPGSRGPPGLKGDRGAPGDRGIKGESGLPDSAALRQQMEALNGKLQRLEAAFSRYKKAALFPDGQSVGDKIFRAANSEEPFEDAKEMCRQAGGQLASPRSATENAAVQQLVTAHSKAAFLSMTDVGTEGKFTYPTGEALVYSNWAPGEPNNNGGAENCVEIFTNGQWNDKACGEQRLVICEF
Regarding B2, the binding entry in experiment [1] is given as “binds”.
